These are yes or no findings as the source states them, for the method shown. Binding seen in cells or lysates may run through a third protein. Some binding calls cover weakened binding; strength is not graded here. For some of these results: Tags and fused reporters may be left off the sequences shown. Values belong to the molecule of their own block, whether it stands above or below them.
Legend:
TAp73-HA = target: T1, TAp73-HA (UniProt O15350); experiment: co-IP; neuronal PC12 cells transfected with TAp73-HA and Itch-Myc, with or without MG132; lysates after 48 h; IP with anti-HA or anti-Myc, blotted with anti-myc and anti-HA respectively
T1 sequence: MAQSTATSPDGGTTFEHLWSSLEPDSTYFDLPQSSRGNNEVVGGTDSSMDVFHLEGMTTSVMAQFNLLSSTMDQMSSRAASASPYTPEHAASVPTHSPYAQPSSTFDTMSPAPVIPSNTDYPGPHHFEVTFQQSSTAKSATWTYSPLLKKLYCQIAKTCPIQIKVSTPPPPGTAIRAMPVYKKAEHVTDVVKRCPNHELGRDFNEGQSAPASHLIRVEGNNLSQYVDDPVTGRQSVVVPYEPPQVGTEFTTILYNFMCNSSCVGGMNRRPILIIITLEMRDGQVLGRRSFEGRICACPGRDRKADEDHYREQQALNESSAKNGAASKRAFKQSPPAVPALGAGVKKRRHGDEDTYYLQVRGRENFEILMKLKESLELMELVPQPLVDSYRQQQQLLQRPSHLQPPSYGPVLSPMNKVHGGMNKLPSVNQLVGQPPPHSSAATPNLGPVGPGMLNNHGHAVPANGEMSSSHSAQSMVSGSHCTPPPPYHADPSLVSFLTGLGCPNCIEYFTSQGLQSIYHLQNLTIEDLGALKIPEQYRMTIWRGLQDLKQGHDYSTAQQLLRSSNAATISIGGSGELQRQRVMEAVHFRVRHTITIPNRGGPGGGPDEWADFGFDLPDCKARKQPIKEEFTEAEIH

Amino acid sequences for entries named in this document (tags omitted).
UniProt Q8C863: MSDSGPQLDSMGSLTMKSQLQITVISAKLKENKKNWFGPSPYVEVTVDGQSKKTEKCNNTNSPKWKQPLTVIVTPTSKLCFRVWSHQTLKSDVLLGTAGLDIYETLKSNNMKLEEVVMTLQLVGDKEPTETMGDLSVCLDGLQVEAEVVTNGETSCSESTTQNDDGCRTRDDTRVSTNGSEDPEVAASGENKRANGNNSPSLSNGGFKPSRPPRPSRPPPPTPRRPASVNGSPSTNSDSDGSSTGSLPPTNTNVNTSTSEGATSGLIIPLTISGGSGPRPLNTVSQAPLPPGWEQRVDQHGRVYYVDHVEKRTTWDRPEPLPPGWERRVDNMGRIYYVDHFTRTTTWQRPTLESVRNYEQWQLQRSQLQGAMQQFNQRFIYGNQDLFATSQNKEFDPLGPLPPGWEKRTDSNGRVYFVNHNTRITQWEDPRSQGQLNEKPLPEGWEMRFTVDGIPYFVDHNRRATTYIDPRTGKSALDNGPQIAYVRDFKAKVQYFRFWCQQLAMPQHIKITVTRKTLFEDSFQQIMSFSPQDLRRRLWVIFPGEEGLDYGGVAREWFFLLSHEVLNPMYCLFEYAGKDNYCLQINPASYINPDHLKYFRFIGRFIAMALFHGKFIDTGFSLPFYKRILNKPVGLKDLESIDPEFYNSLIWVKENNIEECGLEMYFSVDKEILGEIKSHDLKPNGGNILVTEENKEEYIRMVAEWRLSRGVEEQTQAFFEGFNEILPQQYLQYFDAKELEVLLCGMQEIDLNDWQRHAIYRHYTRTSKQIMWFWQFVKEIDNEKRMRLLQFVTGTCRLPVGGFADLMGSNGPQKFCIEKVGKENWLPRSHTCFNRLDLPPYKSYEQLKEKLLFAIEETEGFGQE

[1] = target: Itch (endogenous, TgAD mouse cortical neurons) (mouse (endogenous in TgAD cortical neurons)) (UniProt Q8C863); experiment: co-IP; neurons from TgAD animals, with or without JNK inhibition; data not shown
[2] = target: Itch-myc (adenovirus, wild type) (UniProt Q8C863); experiment: co-IP; TgAD mouse neurons infected with adenovirus for Itch-myc or K393R mutant, with MG132; co-immunoprecipitation of Itch-myc and TAp73 (Supplementary Fig. S5)
Itch-Myc = Itch-Myc (UniProt Q8C863); experiment: co-IP; neuronal PC12 cells transfected with TAp73-HA and Itch-Myc, with or without MG132; lysates after 48 h; IP with anti-HA or anti-Myc, blotted with anti-myc and anti-HA respectively

binding (TAp73-HA): binds
Molecule: Itch-Myc (from UniProt Q8C863 1-864) (enzyme)

binding [1]: binds
binding [2]: binds
B1: TAp73 (endogenous, TgAD mouse cortical neurons) (protein, UniProt Q9JJP2 1-631)
chain: MAQTSSSSSSTFEHLWSSLEPDSTYFDLPQPSQGTSEASGSEESNMDVFHLQGMAQFNLLSSAMDQMGSRAAPASPYTPEHAASAPTHSPYAQPSSTFDTMSPAPVIPSNTDYPGPHHFEVTFQQSSTAKSATWTYSPLLKKLYCQIAKTCPIQIKVSTPPPPGTAIRAMPVYKKAEHVTDIVKRCPNHELGRDFNEGQSAPASHLIRVEGNNLAQYVDDPVTGRQSVVVPYEPPQVGTEFTTILYNFMCNSSCVGGMNRRPILVIITLETRDGQVLGRRSFEGRICACPGRDRKADEDHYREQQALNESTTKNGAASKRAFKQSPPAIPALGTNVKKRRHGDEDMFYMHVRGRENFEILMKVKESLELMELVPQPLVDSYRQQQQQQLLQRPSHLQPPSYGPVLSPMNKVHGGVNKLPSVNQLVGQPPPHSSAAGPNLGPMGSGMLNSHGHSMPANGEMNGGHSSQTMVSGSHCTPPPPYHADPSLVSFLTGLGCPNCIECFTSQGLQSIYHLQNLTIEDLGALKVPDQYRMTIWRGLQDLKQSHDCGQQLLRSSSNAATISIGGSGELQRQRVMEAVHFRVRHTITIPNRGGAGAVTGPDEWADFGFDLPDCKSRKQPIKEEFTETESH

binding (Itch-Myc): binds
B2: TAp73-HA (protein, UniProt O15350 1-636)
chain: T1 sequence
